Results are given in words; binding and its absence hold for the method and conditions named. In cells and extracts the contact can be indirect. Some results given as binding are weak or reduced against the parent protein; the word gives no strength.

Protein sequences, listed by entry. Tags and fused reporters are not part of them.
UniProt Q9Y466: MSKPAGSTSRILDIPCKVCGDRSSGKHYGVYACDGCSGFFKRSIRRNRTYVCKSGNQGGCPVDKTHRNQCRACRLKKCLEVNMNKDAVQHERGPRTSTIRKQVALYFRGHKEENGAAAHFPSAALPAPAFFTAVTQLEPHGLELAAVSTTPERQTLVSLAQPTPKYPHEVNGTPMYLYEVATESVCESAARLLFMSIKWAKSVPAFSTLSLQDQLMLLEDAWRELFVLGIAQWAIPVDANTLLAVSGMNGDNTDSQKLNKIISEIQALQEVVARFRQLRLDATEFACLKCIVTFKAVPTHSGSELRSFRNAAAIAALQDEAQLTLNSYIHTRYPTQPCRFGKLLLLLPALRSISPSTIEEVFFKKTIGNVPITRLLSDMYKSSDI

The target of the assay is HA-NR2E1 (UniProt Q9Y466). The assay is described as follows: co-IP; 293T cells co-expressing HA-NR2E1, Flag-LSD1 and LSD1-197-211 peptide; pull-down of HA-NR2E1 by Flag-LSD1 and reciprocal pull-down of Flag-LSD1 by HA-NR2E1.

On to PDIISGPQQTQKVFL [LSD1-197-211 peptide], for which the binding entry is on record as “binds”.

Source of the values: publication PMC9816925.
